Numbering of substitutions follows the chain as printed. These are yes or no findings as the source states them, for the method shown. Some binding calls cover weakened binding; strength is not graded here. Blank lines part the entries; values can stand above or below the binder they belong to.
Tests used:
[1] = biological target: cTnI quality control product recombinant protein (human) (UniProt P19429); experiment: AMC biosensor
[2] = biological target: cTnI quality control product recombinant protein (human) (UniProt P19429); experiment: capture ELISA and AMC biosensor

B1: WT 1-4 (antibody, V domains shown)
VH: QVQLQQSGTELAKPGASVKFSCKASDYTFSTYWMYWIKQRPGQGLEWIGYINPSSGHTEYNQRFKDKATLTADKSSSTAYMQLNSLTSEDSAVYYCARKYYGPFAMDYWGQGTSVTVSS
VL: EIFLTQSPAIMSASPGEKVTMTCSASTTVSYAHWYQQKSGTSPKRWLYDSSKIASGIPVRFSGSGSGTSYSLTISSMEAEDAATYYCQNWSTNPYTFGGGTKLEIKR
binding [1]: binds

B2: Mutation 1 (antibody, V domains shown)
VH: B1 VH with D26G, I51L, E59D, Y101F, A105G
VL: B1 VL with A32V, S50T, N89Q, N93Q
notes: other CDR sites as WT
binding [2]: binds

B5: WT 1-1 (antibody, V domains shown)
VH: B1 VH with S55T, R63K, K99R
VL: B1 VL with T27S, T28S, L47I
binding [1]: binds

B6: WT 1-6 (antibody, V domains shown)
VH: B1 VH with S30T, T31S, I51L, K99R, Y101F
VL: B1 VL with T27S, I53L
binding [1]: binds

B7: WT 1-2 (antibody, V domains shown)
VH: B1 VH with S30T, T31S, K99R, Y101W
VL: B1 VL with T27S, I53L, T92S, N93Q
binding [1]: binds

Results, then the binder that gave them:

binding [1]: binds
B3: WT 1-8 (antibody, V domains shown)
VH: B1 VH with S55T, R63K, K99R, Y101W
VL: B1 VL with N93Q

binding [1]: binds
B4: WT 1-5 (antibody, V domains shown)
VH: B1 VH with T31S, I51L, S55T, R63K, Y101W
VL: B1 VL with T27S, T28S, L47I

binding [1]: binds
B8: WT 1-3 (antibody, V domains shown)
VH: B1 VH with S30T, S55T, R63K, Y101F
VL: B1 VL with T28S, L47I, I53L, T92S

binding [1]: binds
B9: WT 1-7 (antibody, V domains shown)
VH: B1 VH with S30T, I51L, S55T, R63K, K99R
VL: B1 VL with T28S, L47I, I53L

Source: patent US20220033483A1 (GUAGNDONG FEIPENG BIOLOGICAL, published 2022)
